Measured values as given in US20240400722A1, “Chemically Inducible Heterodimerizing System and A Method For Generation Thereof” (Miltenyi Biotec B.V. & Co. KG, priority 2023, published 2024).

Test: Full-length display of acVHH variants on yeast surface
Parameters: species or system S. cerevisiae
Conditions: anti-c-myc staining; compared with acVHH-WT

B1: acVHH-M1 (protein)
chain: QVQLVESGGGLVQAGGSLRLSCTASGRTGTIYSMAWFRQAPGKEREFLAPVALGLQSTYYMDSVKGRFTISRDKGKNTVYLQMDSLKPEDTAVYYCTATRAYSVGYDYWGQGTQVTVSS
modifications: left off: large carriers; small tags and cut ends
  full length display on yeast: well-expressed

B2: acVHH-M2 (protein)
chain: QVQLVESGGGLVQAGGSLRLSCTASGRTGTIYSMAWFRQAPGKEREFLAQQRWLFRRTYYMDSVKGRFTISRDKGKNTVYLQMDSLKPEDTAVYYCTATRAYSVGYDYWGQGTQVTVSS
modifications: left off: large carriers; small tags and cut ends
  full length display on yeast: well-expressed
